The campaign covered roughly 53,000 sequences. About 3,700 (7%) were called active.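 The calls were made as follows: active = gene knockdowns whose robust z-score for IL-1 alpha signal is at least 2 or at most -2, so actives lie on both sides; inactive = the rest.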 The list shows a part of the results.
experiment: Components of the Cytosolic LPS Sensing Pathway: Gene Identification via Genome-wide siRNA Screen; details: RAW264.7 macrophages, IL-1a HTRF, actives lie on both sides, screened at 100 nM (by protocol), cells primed 5 h with Pam3CSK4 first;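 also: robust z of the log signal after scaling to non-targeting control siRNA wells of the plate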
In short: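 Knockdown: 100 nM siRNA, 48h, RAW264.7. Stimulation: Pam3CSK4 5 h, then LipidA via TransIT-TKO 24 h. Output: supernatant IL-1a HTRF, negative-control-normalized, log robust z-score; viability by CellTiter-Glo.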

Sequence	z-score
CGAAAUGACAGUGUUAUUCTT against Mpl	inactive: 0.185
CGAUUGUAUAGCUUUUAAGTT against Gfpt2	inactive: 0.489
GCUCCAUACACGAAUGAGCTT against Lpar1	inactive: 0.347
GCGUGGAUAACACUGUUGUTT against Hira	inactive: -0.391
GACGAAUAUCAUCUCACACTT against Olfr875	inactive: 0.901
GGAGCUCUUUGACUUCUUGTT against Uqcrh	inactive: 0.359
GACGUGAUCUGCUUUUACUTT against Gpr137	inactive: 0.0435
GGAAGGACAGACAGACAAGTT against Pxt1	inactive: 0.165
GGAAAAAUAGGUCGAAUGATT against Arntl	inactive: 0.229
GGGUUGUGUCUGAAGAGAATT against Jade1	inactive: -0.57
CCGUAUCAUCCAGUUUAACTT against Gnpda1	inactive: -0.429
CCGAAUUUCUGCAUUUAACTT against Cnbp	inactive: 0.292
GGCUGACAAGGCCAAAUACTT against Fam110b	inactive: 1.23
GGACAUGGAAAACAAAAUCTT against Capzb	inactive: 0.645
GGAAACUUGAUUAUUUAGGTT against Vrk2	inactive: 0.915
GGCUGCUGUUGUGCCUAAATT against Zdhhc12	inactive: 0.299
GGUAUUUUUGCUCAGUGCATT against Tmem266	inactive: -0.22
GCUGAGACUUCGAGCCUAUTT against Polr2c	inactive: -0.976
GGAGGAAUCAUAUAAUCUCTT against Pnpla3	inactive: 1.22
GGGCUCUGUGGAAAUCAUGTT against Rnf187	inactive: -0.043
GGCUCUGGCUGAUUUUGCATT against Prcp	inactive: 1.36
GGCAUUAAAUGAUUACAAGTT against Mtf2	inactive: 0.549
GGUCAGAGAAAUGAUGUCUTT against Osbpl11	inactive: -1.77

Sequence	z-score
GGUUUCCUGACAGAAAACCTT against Wdr64	inactive: 0.0573
CCGAGGAUUUGAAACAGUATT against Pir	inactive: -0.858
GGUUCAGCCUGAAAUAGAGTT against Syt5	inactive: -0.697
CCAAGUUUCCCGGUGAUAATT against Pla2g2a	inactive: -1.5
GCCGGGAAGACAAUAACUGTT against Il10	inactive: 0.954
GGUGUGUGUUCCACUAAAGTT against Ptpn18	inactive: -1.41
GCUAUGAGACAAGGCUUUCTT against Gbp9	inactive: -0.185
GGUAUCUGACCUGAGCAUGTT against Msln	inactive: -0.394
GGAUUCUAGGGUUGACAUUTT against Krt73	inactive: 0.805
GGUUAUUAUGACCAAGAAATT against Sf3b1	active: -2.71
GGAGCAAAGGGUAGGGAAATT against 1700052K11Rik	inactive: 0.293
GGUCUGUGAGGAACAAAAGTT against Ccnd2	active: -2.26
CGAUGGAAGUUUAAACCUCTT against Htr1a	inactive: 0.326
GCACUCAAGGUUUUACUGUTT against Satb1	inactive: -0.356
GCAAGUGUAGAUAAAGUAUTT against Msi2	inactive: 0.751
GGAUAUUCAGGACUUUGAUTT against Slc2a1	inactive: 0.0675
GCAAUCUUGAGUUUGCACATT against Haghl	inactive: 0.377
GGACUAUUAGCUCGAACUUTT against Dlx2	inactive: 0.471
CGGAUAAUCAACAUUUCCUTT against Plekha7	inactive: 0.775
GGAAGGUUUGUUGUUUUGUTT against Apon	inactive: -1.58
GGUAAAGAAAGACGACCACTT against Plpp2	inactive: 0.00336
GGAAGAUCCUCGAUAGUCATT against Rgs7	inactive: 1.2
GGAGAAAAAUGUUGAUGAUTT against Ccer1	inactive: -1.74

Sequence	z-score
GCACUAUCGUUUUUCAAUCTT against Tmtc3	inactive: -0.617
GGAAUUGACAUAUUCAGUCTT against 9130221H12Rik	inactive: -1.13
GGGAUCCAGUUGAGGAUCUTT against Sowahb	inactive: -0.0561
GGUCUUCAGGAACCUGAGATT against Pip4k2c	inactive: -1.82
CGUAAAUGGCGAUUGAUCUTT against Mctp1	inactive: -0.711
GGACUUCUCUGUGAAGAUGTT against Ctsf	inactive: -0.129
CGGCCUUCAUCUGCCUUUUTT against Olfr1222	inactive: 0.475
GGGCUUCUUCAAGAGAACGTT against Nr4a3	inactive: 1.22
GACCUUUCUCUUCUUGGCUTT against Olfr434	active: -2.1
GGCCAAGUUCCAAACAAGATT against Zfp109	inactive: 1.09
CCCUGACUUGUCCUUACAATT against Trem3	inactive: -0.831
CCAAUAAGGAAAAAUCUGGTT against Cenpc1	inactive: -0.291
GGAGGACUUCCAGAUCCAATT against Robo4	inactive: 0.104
GGAGAUGAACCAUUAUGUCTT against Mycbp	active: -2.03
GCUUUUCACACGAAAAGGATT against Samd4b	inactive: -0.521
GGAAUUUAUUGAGGUCUUUTT against Plcl2	inactive: 0.0305
GGUUCACGGUUUAUAAAGUTT against Sgk3	inactive: -0.652
CCCUGUUUCUUCUCAAAGUTT against Mrgpra2b	inactive: -0.0171
GGUGCUUCUUCACUCCAUGTT against Vars2	inactive: -0.244
GGAGUCUUACAUAGGAAAATT against Cckbr	inactive: 0.569
GCAUGAUUACCAGAACCACTT against Fcgr2b	inactive: 0.225
GGACAACUCUCAUGUAAUATT against Tbck	inactive: -0.407

Shown as a markdown table: entries from further up

| Sequence | z-score |
| --- | --- |
| GGAAACUUGAUUAUUUAGGTT against Vrk2 | inactive: 0.915 |
| GGCUGCUGUUGUGCCUAAATT against Zdhhc12 | inactive: 0.299 |
| GGUAUUUUUGCUCAGUGCATT against Tmem266 | inactive: -0.22 |
| GCUGAGACUUCGAGCCUAUTT against Polr2c | inactive: -0.976 |
| GGAGGAAUCAUAUAAUCUCTT against Pnpla3 | inactive: 1.22 |
